Experimental findings from publication PMC13415529 are described below.

Sequences of proteins named here, by UniProt entry; tags and fusion partners are left off.
UniProt Q9H9Q4: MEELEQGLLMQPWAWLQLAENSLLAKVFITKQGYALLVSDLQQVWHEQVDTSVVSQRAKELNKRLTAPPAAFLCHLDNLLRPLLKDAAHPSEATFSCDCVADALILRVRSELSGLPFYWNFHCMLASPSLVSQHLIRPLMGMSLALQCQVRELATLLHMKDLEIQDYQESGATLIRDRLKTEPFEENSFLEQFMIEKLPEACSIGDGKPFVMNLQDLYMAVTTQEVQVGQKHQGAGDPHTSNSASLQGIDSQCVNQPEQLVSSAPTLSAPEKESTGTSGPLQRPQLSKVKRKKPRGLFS

This assay deals with GST-UFM1 (human (by the printed UniProt accession)) (UniProt P61960). The assay is described as follows: pull-down; 3–5 µg GST-UFM1 on glutathione magnetic beads, overnight at 4 °C with extract of transfected HEK293T cells; washes NETN and PBS; immunoblot; only the target purified. Background: In western blotting, separated proteins are transferred to a membrane and probed.

No constants are given. Whether binding was seen depends on the method and setting. In cells and extracts the contact can be indirect. Some binding calls cover weakened binding; strength is not graded here.

Take “GFP-tagged XLF (from UniProt Q9H9Q4 1-299)”: the binding entry is reported as “binds”.
